Measured values published in the odorant receptor screen of Mainland et al. (2015).
Several values for one entry are separate records, joined by “and”; a condition that tells them apart may be missing. Identical values can stand only once. The list shows a part of the results. Single wells; the ratio to wells without odorant was worked out here, and repeats agree poorly.

What was measured:
Test in all cases: odorant receptor activation (CRE luciferase / Renilla) (fold of no-odor wells); higher = more activation
Details in all cases: 100 µM
OR5AN1 clone 1245 = test system: OR5AN1 clone 1245
OR5AP2 clone 1209 = test system: OR5AP2 clone 1209
OR5AR1 clone 1207 = test system: OR5AR1 clone 1207
OR5AS1 clone 1135 = test system: OR5AS1 clone 1135
[1] = test system: OR5AU1 L66F/I248V clone 1421
OR5AU1 clone 1344 = test system: OR5AU1 clone 1344
OR5B17 clone 1220 = test system: OR5B17 clone 1220
OR5B2 M200T clone 1246 = test system: OR5B2 M200T clone 1246
OR5B21 I279F clone 1482 = test system: OR5B21 I279F clone 1482
OR5B3 clone 1138 = test system: OR5B3 clone 1138
OR5C1 clone 1425 = test system: OR5C1 clone 1425
OR5D14 clone 1230 = test system: OR5D14 clone 1230
OR5D18 N136D clone 1203 = test system: OR5D18 N136D clone 1203
OR5F1 S294N clone 1148 = test system: OR5F1 S294N clone 1148
[2] = test system: OR5H1 I153L/T181I clone 1473
OR5H1 clone 1471 = test system: OR5H1 clone 1471
[3] = test system: OR5H14 G64R/Y189C clone 1472
[4] = test system: OR5H2 E11Q/I225V/I281V clone 1466
OR5H2 clone 1055 = test system: OR5H2 clone 1055
OR5H6 clone 1056 = test system: OR5H6 clone 1056

SMILES | odorant receptor activation (OR5AN1 clone 1245) | odorant receptor activation (OR5AP2 clone 1209) | odorant receptor activation (OR5AR1 clone 1207) | odorant receptor activation (OR5AS1 clone 1135) | odorant receptor activation [1] | odorant receptor activation (OR5AU1 clone 1344) | odorant receptor activation (OR5B17 clone 1220) | odorant receptor activation (OR5B2 M200T clone 1246) | odorant receptor activation (OR5B21 I279F clone 1482) | odorant receptor activation (OR5B3 clone 1138) | odorant receptor activation (OR5C1 clone 1425) | odorant receptor activation (OR5D14 clone 1230) | odorant receptor activation (OR5D18 N136D clone 1203) | odorant receptor activation (OR5F1 S294N clone 1148) | odorant receptor activation [2] | odorant receptor activation (OR5H1 clone 1471) | odorant receptor activation [3] | odorant receptor activation [4] | odorant receptor activation (OR5H2 clone 1055) | odorant receptor activation (OR5H6 clone 1056)
COc1cc(C)ccc1O [2-methoxy-4-methylphenol] | 0.773 | 0.623 | 1.13 | 1.21 | 0.83 | 1 | 1.29 | 1.31 | 0.792 | 1.46 | 0.697 | 1.21 | 1.28 | 1.44 | 0.821 | 0.831 | 1.08 | 0.847 | 1.78 | 1.97
CCCCCCCOC(C)=O [heptyl acetate] | 0.69 and 2.03 | 0.716 | 1.15 | 0.99 | 1.06 | 0.827 and 0.862 | 0.81 | 1.33 and 1.2 | 0.975 and 1.15 | 1 | 1.19 | 0.996 | 1.01 | 1.09 | 0.839 and 1.26 | 0.667 and 1.08 | 0.94 and 1.1 | 0.796 and 1.4 | 0.645 | 1.48
C=C(C)C1CC=C(C)C(=O)C1 (stereo not given) [r-carvone] | 0.637 | 1.1 | 0.834 | 1.02 | 1.35 | 0.739 | 0.909 | 0.665 | 1.09 | 1.04 | 1.36 | 1.19 | 1.05 | 1.02 | 0.995 | 1.03 | 0.932 | 0.785 | 1.21 | 0.983
CC12C=CCC1C1CCC3CC(=O)CCC3(C)C1CC2 (stereo not given) [androstenone] | 1.22 | 3.07 | 4.78 | 9.21 | 1.33 | 1.14 | 9.81 | 1.15 | 1.02 | 7.27 | 0.967 | 6.2 | 4.57 | 7.14 | 0.865 | 1.01 | 1.16 | 1.1 | 1.55 | 2.07
CC(=O)OC(C)(C)C1CC=C(C)CC1 (stereo not given) [terpinyl acetate] | 0.829 | 1.28 | 1.5 | 1.1 | 1.18 | 0.834 | 0.989 | 0.699 | 0.962 | 1.39 | 1.17 | 1.12 | 1.36 | 1.26 | 1.16 | 1.19 | 1.05 | 0.916 | 2.15 | 1.54
c1ccc(Oc2ccccc2)cc1 [diphenyl ether] | 0.944 | 1.05 | 1.1 | 1.1 | 1.07 | 1.02 | 0.889 | 0.949 | 1.18 | 0.949 | 0.748 | 1.06 | 0.919 | 1.18 | 0.91 | 1.36 | 1.18 | 1.16 | 1.03 | 0.996
CC(C)CC(=O)O [isovaleric acid] | 0.751 | 1.12 | 1.25 | 1.07 | 0.804 | 0.853 | 0.812 | 0.859 | 1.01 | 1.05 | 0.824 | 1.33 | 1.07 | 1.04 | 1 | 1.01 | 1.12 | 0.949 | 1.55 | 1.28
CCCCO [1-butanol] | 0.843 | 0.666 | 1.13 | 0.973 | 1.2 | 1 | 1.58 | 1.3 | 1.24 | 1.53 | 0.903 | 1.15 | 0.701 | 1.3 | 1.1 | 1.17 | 1.07 | 1.21 | 3.14 | 3.57
CCCCCCCCCCC=O [undecanal] | 0.714 | 0.912 | 0.893 | 0.984 | 1.21 | 0.833 | 0.741 | 0.858 | 1.08 | 0.868 | 0.963 | 0.866 | 1.13 | 1.02 | 1.04 | 1.2 | 1.19 | 0.923 | 1.46 | 1.08
CCCCCCCC=CC=O [2-decenal] | 1.18 | 0.556 | 1.06 | 0.965 | 1.31 | 1.08 | 1.31 | 2.18 | 1.45 | 1.17 | 0.781 | 1.19 | 0.638 | 1.24 | 1.27 | 1.91 | 2.04 | 1.76 | 4.76 | 4.39
O=CCc1ccccc1 [phenyl acetaldehyde] | 0.846 | 0.836 | 1.12 | 1.45 | 1.74 | 1.31 | 1.35 | 0.941 | 1.49 | 1.48 | 1.23 | 1.08 | 0.941 | 1.34 | 1.34 | 1.65 | 1.16 | 1.38 | 1.18 | 1.27
CC(C)CCC(=O)O [4-methylvaleric acid] | 1.03 | 0.789 | 1.01 | 1.1 | 1.02 | 0.976 | 1.33 | 1.22 | 0.889 | 1.41 | 1.06 | 1.58 | 0.963 | 1.16 | 1.01 | 0.971 | 1.07 | 1.09 | 1.56 | 1.71
CCCCCCCC=O [octyl aldehyde] | 1.05 | 1.37 | 1.28 | 0.931 | 0.977 | 1.03 | 0.867 | 0.994 | 1.11 | 0.996 | 0.834 | 1.14 | 1.11 | 0.861 | 0.847 | 1.03 | 0.827 | 1.01 | 1.11 | 1.19
C=CCc1ccc(OC)c(OC)c1 [eugenol methyl ether] | 1.65 | 1.52 | 1.59 | 1.42 | 1.54 | 1.27 | 1.34 | 1.41 | 1.37 | 1.49 | 1.1 | 1.58 | 1.51 | 1.51 | 1.23 | 1.48 | 1.38 | 1.34 | 1.94 | 1.88
C=CCc1ccc(OC(C)=O)c(OC)c1 [eugenol acetate] | 1.57 | 1.7 | 1.5 | 2.41 | 2.07 | 1.23 | 1.31 | 1.64 | 1.74 | 1.85 | 1.21 | 1.77 | 2.06 | 2.1 | 1.5 | 2.05 | 1.85 | 1.53 | 2.29 | 1.76
CC1CCC(C(C)C)C(O)C1 (single isomer, unassigned; (-)) [(-)-menthol] | 0.796 | 0.763 | 1.14 | 1.06 | 0.885 | 0.874 | 1.61 | 0.785 | 1.2 | 1.06 | 0.599 | 1.26 | 0.851 | 1.17 | 2.29 | 3.58 | 1.86 | 1.4 | 2.74 | 3.59
COc1ccccc1O [guaiacol] | 0.658 and 1.77 | 1.15 | 1.24 | 0.829 | 0.906 | 0.9 and 0.902 | 0.549 | 0.833 and 1.14 | 0.928 and 1.12 | 1.17 | 0.722 | 1.01 | 0.894 | 1.04 | 0.835 and 1.18 | 0.594 and 1.15 | 0.889 and 0.984 | 1.14 and 1.05 | 1.19 | 1.64
CC1=CCC(C(C)(C)O)CC1 (stereo not given) [terpineol] | 0.876 | 1.29 | 1.35 | 1.23 | 1.03 | 0.87 | 1.02 | 0.952 | 0.797 | 1.21 | 1.26 | 1.22 | 1.11 | 1.21 | 0.811 | 0.876 | 0.69 | 0.713 | 1.29 | 1
CC12CCC(CC1)C(C)(C)O2 [cineole] | 0.89 | 0.841 | 0.856 | 0.87 | 0.365 | 0.837 | 0.931 | 1.06 | 0.874 | 0.989 | 0.437 | 0.98 | 0.798 | 0.874 | 0.816 | 1.14 | 0.964 | 0.93 | 1.26 | 0.931
CC12CCC(C1)C(C)(C)C2=O (stereo not given) [fenchone] | 0.985 | 0.993 | 1.14 | 0.958 | 1.13 | 0.864 | 0.783 | 0.888 | 1.2 | 1 | 1.16 | 1.1 | 0.957 | 0.894 | 0.995 | 1.13 | 1.14 | 1.08 | 1.01 | 1.17
C=CCSCC=C [diallyl sulfide] | 1.01 | 1.02 | 1.1 | 1.13 | 1.37 | 0.854 | 0.839 | 0.872 | 1.36 | 0.864 | 0.837 | 1.11 | 1.09 | 1.24 | 1.02 | 1.23 | 1.25 | 1.19 | 1.02 | 0.943
O=C1CCCCCCCCCCCCCCO1 [pentadecalactone] | 1.13 | 0.82 | 0.84 | 0.927 | 1.34 | 0.78 | 0.71 | 0.552 | 0.986 | 0.811 | 1.46 | 0.88 | 0.788 | 0.907 | 0.895 | 1.06 | 0.919 | 0.774 | 0.968 | 0.817
CC(=O)OCC=C(C)CCC=C(C)C [geranyl acetate] | 0.741 and 1.97 | 0.932 | 1.21 | 1.05 | 1.08 | 0.927 and 1.15 | 0.757 | 0.891 and 1.3 | 0.74 and 1.63 | 1.05 | 0.959 | 1.17 | 0.973 | 1.52 | 1.02 and 1.39 | 0.762 and 1.41 | 0.766 and 1.32 | 0.869 and 1.53 | 1.46 | 1.61
COC(=O)c1ccccc1O [methyl salicylate] | 0.8 | 1.29 | 1.27 | 0.979 | 0.931 | 1.05 | 0.692 | 0.9 | 1.25 | 0.969 | 0.72 | 0.822 | 0.899 | 0.783 | 0.889 | 1.04 | 0.928 | 0.981 | 1.11 | 1.01
CCCCCCCCCC=O [decyl aldehyde] | 1.2 | 1.2 | 1.37 | 1.24 | 1.56 | 1.02 | 1.26 | 1.26 | 1.09 | 1.18 | 1.17 | 1.28 | 1.12 | 1.16 | 0.829 | 1.38 | 1.34 | 1.36 | 1.18 | 1.24
CCCC(=O)O [butyric acid] | 1.03 | 0.909 | 1.09 | 1.37 | 0.363 | 0.863 | 1.1 | 1.26 | 1.1 | 1.16 | 0.439 | 1.32 | 0.912 | 1.04 | 0.884 | 1.35 | 1.12 | 1.06 | 1.55 | 1.16
